Assay results as given in paper PMC12139522.

Biological target: T1, mCherry-TPRN (mouse) (UniProt A2AI08)
T1 sequence: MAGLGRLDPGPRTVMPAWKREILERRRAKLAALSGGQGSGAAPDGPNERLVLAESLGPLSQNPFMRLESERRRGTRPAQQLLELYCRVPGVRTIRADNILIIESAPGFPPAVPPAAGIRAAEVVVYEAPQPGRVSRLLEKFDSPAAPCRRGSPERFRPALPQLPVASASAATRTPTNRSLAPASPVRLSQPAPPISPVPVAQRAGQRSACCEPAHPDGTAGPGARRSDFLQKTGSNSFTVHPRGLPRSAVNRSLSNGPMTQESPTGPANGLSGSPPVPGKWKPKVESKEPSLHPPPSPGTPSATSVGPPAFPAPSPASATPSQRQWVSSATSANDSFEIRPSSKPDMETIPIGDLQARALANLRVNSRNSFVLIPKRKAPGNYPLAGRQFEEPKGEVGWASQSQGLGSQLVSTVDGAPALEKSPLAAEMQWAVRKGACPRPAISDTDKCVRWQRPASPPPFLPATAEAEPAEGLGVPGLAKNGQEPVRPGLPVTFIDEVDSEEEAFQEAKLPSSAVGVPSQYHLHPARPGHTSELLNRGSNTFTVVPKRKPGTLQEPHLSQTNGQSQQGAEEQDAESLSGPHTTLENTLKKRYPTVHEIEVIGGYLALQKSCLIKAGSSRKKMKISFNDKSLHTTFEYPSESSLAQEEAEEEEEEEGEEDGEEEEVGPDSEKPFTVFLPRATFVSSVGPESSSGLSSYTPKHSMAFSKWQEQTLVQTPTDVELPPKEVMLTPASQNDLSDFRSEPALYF
Assay: co-translocation to the nucleus (confocal microscopy); COS-7 cells co-expressing mCherry-TPRN and EGFP-PTPRQ; PTPRQ carried to nuclear whorl-like actin bundles

binding: binds
Substance: EGFP-PTPRQ (cytoplasmic intracellular domain of chicken PTPRQ with EGFP) (domain or fragment)

Results are given in words; binding and its absence hold for the method and conditions named. A result given as binding can be weak or reduced; the word gives no strength.
